# Data reported in publication PMC12834145.
# No constants are given. Whether binding was seen depends on the method and setting. In cells and extracts the contact can be indirect. Some binding calls cover weakened binding; strength is not graded here. Where a sequence is shown, tags or fusion partners need not be part of it.
# B1: Flag-CALCOCO2 (protein, UniProt Q13137 1-446)
# chain: MEETIKDPPTSAVLLDHCHFSQVIFNSVEKFYIPGGDVTCHYTFTQHFIPRRKDWIGIFRVGWKTTREYYTFMWVTLPIDLNNKSAKQQEVQFKAYYLPKDDEYYQFCYVDEDGVVRGASIPFQFRPENEEDILVVTTQGEVEEIEQHNKELCKENQELKDSCISLQKQNSDMQAELQKKQEELETLQSINKKLELKVKEQKDYWETELLQLKEQNQKMSSENEKMGIRVDQLQAQLSTQEKEMEKLVQGDQDKTEQLEQLKKENDHLFLSLTEQRKDQKKLEQTVEQMKQNETTAMKKQQELMDENFDLSKRLSENEIICNALQRQKERLEGENDLLKRENSRLLSYMGLDFNSLPYQVPTSDEGGARQNPGLAYGNPYSGIQESSSPSPLSIKKCPICKADDICDHTLEQQQMQPLCFNCPICDKIFPATEKQIFEDHVFCHSL
# Molecular target: T1, HA-IKBKE (UniProt Q14164)
# T1 sequence: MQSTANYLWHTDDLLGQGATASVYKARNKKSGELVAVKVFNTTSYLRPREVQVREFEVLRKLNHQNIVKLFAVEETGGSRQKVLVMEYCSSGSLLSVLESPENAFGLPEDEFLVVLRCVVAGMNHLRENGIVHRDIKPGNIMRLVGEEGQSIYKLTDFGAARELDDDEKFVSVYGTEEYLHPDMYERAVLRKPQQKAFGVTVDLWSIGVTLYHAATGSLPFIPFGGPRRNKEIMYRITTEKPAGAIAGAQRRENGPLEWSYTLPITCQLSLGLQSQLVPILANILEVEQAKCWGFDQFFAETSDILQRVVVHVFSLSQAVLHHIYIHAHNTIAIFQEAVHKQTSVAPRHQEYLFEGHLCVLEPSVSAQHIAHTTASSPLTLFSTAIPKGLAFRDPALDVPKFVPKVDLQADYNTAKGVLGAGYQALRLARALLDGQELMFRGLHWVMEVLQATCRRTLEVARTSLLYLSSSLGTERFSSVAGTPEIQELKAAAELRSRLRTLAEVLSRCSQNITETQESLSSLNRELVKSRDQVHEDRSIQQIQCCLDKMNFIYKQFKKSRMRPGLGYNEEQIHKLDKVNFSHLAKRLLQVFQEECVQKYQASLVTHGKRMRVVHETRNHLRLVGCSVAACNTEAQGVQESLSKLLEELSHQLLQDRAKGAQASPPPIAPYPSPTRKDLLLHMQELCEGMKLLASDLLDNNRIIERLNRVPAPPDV
# Assay: co-IP
molecule,measurement,value
Flag-SQSTM1 (from UniProt Q13501 1-440),binding,no binding
B1,binding,binds
